Results deposited as PubChem BioAssay AID1259405 (NCATS, 2018)

Purpose: 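Knock-downs that lift recombinant protein yield in hamster ovary cells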 (primary screen)
Cell system: Chinese hamster CHO-K1 ovary cells with stable secreted eGFP expression
Reagent: single siRNA against mouse genes, 0.8 pmol siRNA per well (2 µl of 400 nM stock)
Timing: 3 days
Detection: 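Percent of the per-plate non-targeting control median for intracellular GFP per well by laser scanning cytometry and for cell viability by ATP luminescence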
Scale: GFP, % of control: higher = more GFP per well, higher productivity; viability (ATP), % of control: higher = more viable cells (more ATP)
Active means: 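Called active when intracellular GFP, relative to negative control, is at or above 120%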
The whole screen tested about 50,000 reagents; below is a random part of them. About 4,000 of all reagents (8%) count as active. 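Mouse siRNA library applied to hamster cells; one well for each siRNA.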 Reagents against one gene are numbered here.

gene knocked down	reagent	GFP, % of control	viability (ATP), % of control	Call
Stox2	1	80.4	81.3	inactive
Stox2	2	99	89.5	inactive
Stox2	3	79.7	102	inactive
Tjp3	1	40.9	47.6	inactive
Tjp3	2	118	98.9	inactive
Tjp3	3	76.7	137	inactive
Ly86	1	137	109	active
Ly86	2	80.9	93.8	inactive
Ly86	3	63.2	78.6	inactive
Otub2	1	72.6	58.5	inactive
Otub2	2	126	66.8	active
Otub2	3	87.5	100	inactive
Mcm5	1	58.3	84.5	inactive
Mcm5	2	82.3	69.2	inactive
Mcm5	3	69.2	105	inactive
Relb	1	123	118	active
Relb	2	62.3	47.4	inactive
Relb	3	95.4	90	inactive
Dmap1	1	54.8	82.3	inactive
Dmap1	2	83	83.4	inactive
Dmap1	3	74.8	65.4	inactive
Tspan14	1	54.4	49.2	inactive
Tspan14	2	75.7	89.7	inactive
Tspan14	3	67.3	75.1	inactive
Nr2e1	1	140	103	active
Nr2e1	2	80.2	68.7	inactive
Nr2e1	3	40.7	35.4	inactive
Met	1	95.9	112	inactive
Gng4	1	119	94.7	inactive
Gng4	2	88.7	56.1	inactive
Gng4	3	121	69.7	active
Grpel1	1	102	63.2	inactive
Grpel1	2	129	84	active
Grpel1	3	115	164	inactive
Ark2n	1	112	98.2	inactive
Ark2n	2	53.1	70.1	inactive
Ark2n	3	100	70	inactive
Sema4a	1	113	88	inactive
Sema4a	2	105	91.1	inactive
Sema4a	3	93.1	83.1	inactive
Pros1	1	48.8	77.1	inactive
Pros1	2	88.2	92.2	inactive
Nop16	1	74.9	110	inactive
Nop16	2	101	87.3	inactive
Nop16	3	111	69.5	inactive
Ppp2r5d	1	143	142	active
Ppp2r5d	2	44.3	43.8	inactive
Ppp2r5d	3	85.4	68	inactive
Itga2b	1	130	76.3	active
Itga2b	2	126	89	active
Or5g27	1	141	148	active
Or5g27	2	84.6	108	inactive
Or5g27	3	45.4	71.1	inactive
Nck2	1	47.9	44.4	inactive
Nck2	2	92.6	85.4	inactive
Nck2	3	66.5	86.7	inactive
Tpx2	1	87.3	65.6	inactive
Tpx2	2	159	106	active
Trappc8	1	72	91.4	inactive
Trappc8	2	87.3	98.5	inactive
Trappc8	3	75	104	inactive
Dhx37	1	78.4	71.2	inactive
Dhx37	2	51.2	58.3	inactive
Dhx37	3	79.7	76.2	inactive
Trim50	1	116	104	inactive
Trim50	2	64	73	inactive
Trim50	3	65.9	88.6	inactive
Rit1	1	61.3	38.3	inactive
Rit1	2	66.7	55.9	inactive
Rit1	3	57.6	60.2	inactive
4921536K21Rik	1	65.8	75	inactive
4921536K21Rik	2	69.3	75.4	inactive
4921536K21Rik	3	95.1	101	inactive
Gadd45g	1	100	98.3	inactive
Gadd45g	2	76.7	60.5	inactive
Gadd45g	3	113	72.2	inactive
Pik3c2a	1	76.3	71.5	inactive
Pcsk2	1	98.6	93.9	inactive
Pcsk2	2	51.8	64.5	inactive
Pcsk2	3	61.5	65.1	inactive
Rspry1	1	66.9	86.1	inactive
Rspry1	2	58	50.5	inactive
Rspry1	3	82.5	126	inactive
Mta1	1	46.3	61.9	inactive
Mta1	2	44.9	64.7	inactive
Mta1	3	69.2	73.4	inactive

Hits, of those listed so far:
gene knocked down	reagent	GFP, % of control	viability (ATP), % of control	Call
Ly86	1	137	109	active
Otub2	2	126	66.8	active
Relb	1	123	118	active
Nr2e1	1	140	103	active
Gng4	3	121	69.7	active
Grpel1	2	129	84	active
Ppp2r5d	1	143	142	active
Itga2b	1	130	76.3	active
Itga2b	2	126	89	active
Or5g27	1	141	148	active
Tpx2	2	159	106	active
